Screening data, single-dose tests

Source: ChEMBL document CHEMBL3988442, “University of Dundee, Small-Polar-MMV Screening Library” (2021).

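Whole-parasite assay of Trypanosoma brucei over 72 hours; the read-out is not stated. Tested at 30 µM. Higher reads as stronger inhibition (inferred: compounds with an IC50 in retests scored well above the rest). Values scatter widely below zero; nearly all retest evidence comes from the higher of the two concentrations used. Of about 64,000 compounds tested this way, about 940 (1.5%) reached 50% or more in at least one test.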

Values are the deposited “Percent Effect”, in %.
The controls that fix the scale are not given in the record; negative values are as filed.
The compounds are a random part of those screened.

| structure | percent effect |
|---|---|
| `CCCS(=O)(=O)NC1CCN(c2cccc(F)c2C#N)CC1` | 1.904 |
| `C=C(C)CNC1CCCN(Cc2noc(C3CC3)n2)C1` (stereo unspecified) | -6.555 |
| `CC1(C)CC1(C(=O)N1CC(c2cccnc2)C1)c1ccccc1F` (stereo unspecified) | -8.637 |
| `CN[C@@H](C)C(=O)N(Cc1cccc(C)c1)Cc1ccccc1OC` | -25.44 |
| `c1csc(-c2noc(CCCN3CCCC3Cn3cncn3)n2)c1` (stereo unspecified) | -5.672 |
| `O=C(NS(=O)(=O)c1ccc(F)c(F)c1)c1cscn1` | -19.22 |
| `Cc1nc2c(c(N3CCC(O)(CN4CCCC4)CC3)n1)CCNCC2` | -8.619 |
| `CCOC(=O)C(C)Nc1cccc(COCc2ccco2)c1` (stereo unspecified) | -50.43 |
| `O=C(NCc1ccccc1CN1CCCC1)Nc1cccnc1` | -46.04 |
| `CN1CCN2CCN(Cc3ccccc3Cn3cccn3)CC2C1` (stereo unspecified) | -145.1 |
| `O=C1CCNC(=O)N1CC(=O)N1CCC1c1ccc(F)cc1` (stereo unspecified) | -7.54 |
| `Nc1nc(C2CCN(C(=O)c3cnccn3)CC2)cs1` | -17.14 |
| `CCS(=O)(=O)N1CCN(C(=O)c2ccc(Cn3cc(Br)cn3)cc2)CC1` | 1.998 |
| `CCc1ccc(CN(C)C(=O)C2CC(=O)N(c3cccc(O)c3)C2)nc1` (stereo unspecified) | -9.215 |
| `CCCN1CCC(NCc2cccc(CN3CCOC(C)C3)c2)CC1` (stereo unspecified) | -98.47 |
| `Cc1cc(O)c(OCC(=O)Nc2nc3c(s2)CCCCC3)cn1` | 0.6547 |
| `CCn1cc(NC(=O)NCC2(N3CCOCC3)CCSC2)cn1` (stereo unspecified) | -1.978 |
| `COCC(=O)N1CCC(=O)N(C2CCCC2)Cc2cc(F)ccc21` | -17.5 |
| `COCCCNS(=O)(=O)c1ccc2c(c1)NC(=O)C(C)O2` (stereo unspecified) | -16.82 |
| `CCN(CC)S(=O)(=O)c1cc(NC(=O)CCc2cscn2)ccc1C` | -35.35 |
| `CC(C)N1CCC(c2nc3ccc(-c4ccnn4C)cn3n2)CC1.O=C(O)C(F)(F)F` | -11.51 |
| `O=C(O)C(F)(F)F.O=C(O)C(F)(F)F.[H][C@]12CCN(C(C)C)C[C@@]1([H])CN(Cc1cccnc1OC)C2` | 6.412 |
| `CC(NCc1cnc(N2CCOCC2)s1)c1ccc(Cl)s1` (stereo unspecified) | -95.31 |
| `Cc1csc(N2CCN(Cc3cscn3)CC2C)n1` (stereo unspecified) | -58.65 |
| `Cc1cc(CNc2ccc(C(=O)N3CCc4ccccc43)cn2)on1` | 20.29 |
| `Cn1nc(N2CCCC(C(=O)Nc3nc4ccccc4s3)C2)ccc1=O` (stereo unspecified) | -10.15 |
| `CCOc1ccccc1C(CC(=O)Nc1nc(C)cs1)NC(C)=O` (stereo unspecified) | -32.87 |
| `Cc1c(CNC(=O)Nc2cccc3c2CCN3C)cnn1C` | -32.43 |
| `CCN(Cc1cccc(C(N)=O)c1)c1ccccc1` | -238.4 |
| `CC(C)c1nc(C2CCCNC2)no1.Cl` (stereo unspecified) | -47.43 |
| `CC(=O)NCC(=O)N1CCC(C2CCN(Cc3ccc(Cl)cc3)C2)CC1` (stereo unspecified) | -34.28 |
| `CN(Cc1ccc(Br)s1)Cn1nc(-c2ccc(F)cc2)oc1=O` | -3.394 |
| `CC(C)c1ncc2c(n1)CN(Cc1nc(-c3ccccn3)no1)CC2` | -4.814 |
| `Cc1noc(C)c1CNc1cccc(C(=O)N2CCCC(O)C2)c1` (stereo unspecified) | -5.861 |
| `Cc1cc(C(=O)Nc2ccn(CCCN3CCCC3)n2)c(C)o1` | -28.36 |
| `CN(Cc1ccc([S+](C)[O-])cc1)c1ccccn1` (stereo unspecified) | -22.54 |
| `COc1ccccc1C1CCN(C(=O)c2ncccc2OC(C)C)C1` (stereo unspecified) | -16.33 |
| `O=C(NC[C@H]1OC[C@@H](NC2CCC(F)(F)CC2)[C@@H]1O)c1cccs1` | -4.492 |
| `CCc1nc(C2CCCN2C(=O)c2nc(C)n3ccccc23)no1` (stereo unspecified) | -25.5 |
| `COC1CCN(S(=O)(=O)N2CCC3(CCCNC3=O)C2)CC1` (stereo unspecified) | -7.652 |
| `Cc1ccccc1S(=O)(=O)CCOC(C)C` | -28.94 |
| `Cc1ccc(C(=O)N2CCC3(CCC(=O)N(C(C)C)C3)CC2)c(O)c1` | -63.58 |
| `Cc1nc(C)c(COc2ccc(N(C)S(C)(=O)=O)cc2)s1` | -31.17 |
| `CN(C)c1ccc(CNc2cncc(-n3cccn3)n2)cc1` | 19.68 |
| `O=C(O)c1ccc(F)c(S(=O)(=O)Nc2c(F)cccc2-n2cccn2)c1` | 36.92 |
| `O=C(c1c(F)cccc1Br)N1CCCOCC1` | -60.07 |
| `O=C(O)C(F)(F)F.O=C(O)C(F)(F)F.c1ccc(OCc2nnc3n2CCN(CC2CC2)C3)nc1` | 16.25 |
| `O=C(Nc1nccs1)NC1CCN(Cc2ccccc2)CC1` | -0.4833 |
| `CCC(CO)N(Cc1ccsc1)Cc1ccc(-c2ccn[nH]2)s1` (stereo unspecified) | 33.53 |
| `Cc1cc(C(=O)Nc2ccc3c(ccn3CCN3CCOCC3)c2)on1` | -5.391 |
| `CCOC(=O)N(C)C1CCN(Cc2cnc3ccccn23)CC1` | -39.33 |
| `Cc1cc(C(=O)N2CCC3(CC2)CC(c2cccnc2)C(=O)N3)no1.O=C(O)C(F)(F)F` (stereo unspecified) | -44.38 |
| `CN1CCCCC1c1cncc(Cl)n1.Cl` (stereo unspecified) | 12.11 |

Some entries from above, unchanged:

structure	percent effect
O=C(O)c1ccc(F)c(S(=O)(=O)Nc2c(F)cccc2-n2cccn2)c1	36.92
O=C(c1c(F)cccc1Br)N1CCCOCC1	-60.07
CC1(C)CC1(C(=O)N1CC(c2cccnc2)C1)c1ccccc1F (stereo unspecified)	-8.637
COCCCNS(=O)(=O)c1ccc2c(c1)NC(=O)C(C)O2 (stereo unspecified)	-16.82
Cc1nc(C)c(COc2ccc(N(C)S(C)(=O)=O)cc2)s1	-31.17